According to patent US4704450 (dated 1987):
The star is where a group is joined. Cbz = O=C(OCc1ccccc1)*; Boc = CC(C)(C)OC(=O)*; OBn = c1ccc(CO*)cc1

Test: general procedure: solution-phase peptide synthesis; BOP; active esters (ONp, OTCP, OSu, ONb) with HOBt; NEM or DIPEA
[1] = coupling step, HPLC reverse phase EPP

Row | Substance | step yield (coupling step) | also measured
1 | Boc-RK(Cbz)LL-OMe | 87% | final HPLC purity (coupling step, HPLC-EPP): 91.8%
2 | Boc-E(OBn)SNQ-OH |  | step yield (coupling step, run 1): 90%; step yield (coupling step, run 2): 71.9%
3 | H-Ser-Arg-Gln-Gln-Gly-Glu(OBzl)-Ser-Asn-Gln-Glu(OBzl)-Arg-Gly-Ala-Arg-Ala- Arg-Leu-NH2, TFA, HCl |  | step yield (late stage modification step): 97%
4 | Boc-Ser-Arg-Gln-Gln-Gly-Glu(OBzl)-Ser-Asn-Gln-Glu(OBzl)-Arg-Gly-Ala-Arg-Ala-Arg-Leu-NH2, HCl | 80% | 
5 | H-NQE(OBn)RG-OH | 85% | 
6 | Boc-Gln-Asp(OBzl)-Ile-Met-Ser-Arg-Gln-Gln-Gly-Glu(OBzl)-Ser-Asn-Gln-Glu(OBzl)-Arg-Gly-Ala-Arg-Ala-Arg-Leu-NH2, HCl | 100% | 
7 | Boc-K(Cbz)VLG-OMe | 86% | 
8 | Boc-Tyr-Arg(Z)-Val-Leu-Gly-Gln-Leu-Ser-Ala-OCH3, HCl | 90% | crude HPLC purity [1]: 92%
9 | Boc-E(OBn)SNQE(OBn)RGARARL-NH2 | 81% | 
10 | Boc-Tyr-Arg(HCl)-Lys(Z)-Val-Leu-Gly-OH |  | step yield (late stage modification step): 74.7%; purity (crude or final not stated) (late stage modification step, HPLC-EPP): 91.52%
11 | H-Glu(OBzl)-Arg-Gly-Ala-Arg-Ala-Arg-Leu-NH2, TFA, HCl |  | step yield (late stage modification step): 100%
12 | Boc-Ser-Arg-Gln-Gln-Gly-OMe, AcOH |  | step yield (late stage modification step): 97.8%
13 | H-QE(OBn)RG-OH | 76% | 
14 | Boc-Glu(OBzl)-Arg-Gly-Ala-Arg-Ala-Arg-Leu-NH2, 3 HCl | 80% | crude HPLC purity [1]: 95%
15 | Boc-Tyr-Arg(HCl)-Lys(Z)-Val-Leu-Gly-OCH3 | 96% | crude HPLC purity (coupling step, HPLC EPP): 93.81%
16 | Z-Ala-Arg (NO2)-Ala-Arg (NO2) Leu-NH2 | 76% | 
17 | H-Asp(OBzl)-Ile-Met-Ser-Arg-Gln-Gln-Gly-Glu(OBzl)-Ser-Asn-Gln-Glu(OBzl)-Arg-Gly-Ala-Arg-Ala-Arg-Leu-NH2, TFA, HCl |  | step yield (late stage modification step): 100%
18 | Boc-Ile-Phe-Thr-Asn-Ser-Tyr-Arg-Lys(Z)-Val-Leu-Gly-Gln-Leu-Ser-Ala-OCH3, HCl | 86% | crude HPLC purity [1]: 90%; step yield (coupling step, overall): 95%
19 | Boc-QLSA-OMe |  | purity (crude or final not stated) (coupling step, HPLC EPP): 91%
20 | Boc-E(OBn)SNQE(OBn)RG-OH | 80% | 
21 | Boc-Glu(OBzl)-Ser-Asn-Gln-Glu(OBzl)-Arg-Gly-Ala-Arg-Ala-Arg-Leu-NH2, HCl | 75% | crude HPLC purity [1]: 70%
22 | H-SNQE(OBn)RG-OH | 77% | 
23 | Arg (NO2)-Ala-Arg (NO2)-Leu-NH2 | 85% | 
24 | Boc-Arg-Lys(Z)-Leu-Leu-Gln-Asp(OBzl)-Ile-Met-Ser-Arg-Gln-Gln-Gly-Glu (OBzl)-Ser-Asn-Gln-Glu(OBzl)-Arg-Gly-Ala-Arg-Ala-Arg-Leu-Nh 2, HCl | 93% | 
